From the supplement of paper PMC10849652
The other results are listed elsewhere or left out.

Amino acid sequences for entries named in this document (tags omitted). A change or cut given only in a name is not applied to a line headed by its entry.
UniProt P0CL80: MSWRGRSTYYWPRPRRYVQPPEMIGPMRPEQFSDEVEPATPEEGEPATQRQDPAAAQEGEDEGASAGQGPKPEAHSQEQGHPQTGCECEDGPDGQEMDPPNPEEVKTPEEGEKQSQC
UniProt Q8TB36: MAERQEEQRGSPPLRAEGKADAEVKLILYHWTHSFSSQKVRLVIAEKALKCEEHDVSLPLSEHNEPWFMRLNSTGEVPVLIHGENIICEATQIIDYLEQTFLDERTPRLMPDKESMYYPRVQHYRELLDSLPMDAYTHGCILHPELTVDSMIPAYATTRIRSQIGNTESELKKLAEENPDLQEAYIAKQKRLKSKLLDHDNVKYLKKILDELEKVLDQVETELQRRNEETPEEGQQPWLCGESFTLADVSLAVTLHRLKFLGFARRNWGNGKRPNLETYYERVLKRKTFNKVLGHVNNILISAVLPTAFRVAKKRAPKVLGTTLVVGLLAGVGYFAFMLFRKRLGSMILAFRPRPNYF
UniProt P50395: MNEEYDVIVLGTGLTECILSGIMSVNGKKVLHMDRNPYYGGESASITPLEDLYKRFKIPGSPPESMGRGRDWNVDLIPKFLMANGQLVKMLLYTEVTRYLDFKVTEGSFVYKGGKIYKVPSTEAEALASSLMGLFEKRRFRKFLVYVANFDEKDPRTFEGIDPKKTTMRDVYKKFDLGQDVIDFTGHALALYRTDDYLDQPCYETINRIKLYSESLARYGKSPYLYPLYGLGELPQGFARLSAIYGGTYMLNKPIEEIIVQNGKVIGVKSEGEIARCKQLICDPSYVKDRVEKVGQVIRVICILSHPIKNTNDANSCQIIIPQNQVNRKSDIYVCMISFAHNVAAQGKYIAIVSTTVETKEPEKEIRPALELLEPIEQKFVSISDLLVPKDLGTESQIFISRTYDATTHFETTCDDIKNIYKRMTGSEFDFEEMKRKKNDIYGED
UniProt Q8WXD5: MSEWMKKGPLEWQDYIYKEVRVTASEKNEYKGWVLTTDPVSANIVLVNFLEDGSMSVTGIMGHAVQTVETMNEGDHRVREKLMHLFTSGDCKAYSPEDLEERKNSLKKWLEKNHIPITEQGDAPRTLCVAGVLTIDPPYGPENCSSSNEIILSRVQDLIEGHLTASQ
UniProt O94915: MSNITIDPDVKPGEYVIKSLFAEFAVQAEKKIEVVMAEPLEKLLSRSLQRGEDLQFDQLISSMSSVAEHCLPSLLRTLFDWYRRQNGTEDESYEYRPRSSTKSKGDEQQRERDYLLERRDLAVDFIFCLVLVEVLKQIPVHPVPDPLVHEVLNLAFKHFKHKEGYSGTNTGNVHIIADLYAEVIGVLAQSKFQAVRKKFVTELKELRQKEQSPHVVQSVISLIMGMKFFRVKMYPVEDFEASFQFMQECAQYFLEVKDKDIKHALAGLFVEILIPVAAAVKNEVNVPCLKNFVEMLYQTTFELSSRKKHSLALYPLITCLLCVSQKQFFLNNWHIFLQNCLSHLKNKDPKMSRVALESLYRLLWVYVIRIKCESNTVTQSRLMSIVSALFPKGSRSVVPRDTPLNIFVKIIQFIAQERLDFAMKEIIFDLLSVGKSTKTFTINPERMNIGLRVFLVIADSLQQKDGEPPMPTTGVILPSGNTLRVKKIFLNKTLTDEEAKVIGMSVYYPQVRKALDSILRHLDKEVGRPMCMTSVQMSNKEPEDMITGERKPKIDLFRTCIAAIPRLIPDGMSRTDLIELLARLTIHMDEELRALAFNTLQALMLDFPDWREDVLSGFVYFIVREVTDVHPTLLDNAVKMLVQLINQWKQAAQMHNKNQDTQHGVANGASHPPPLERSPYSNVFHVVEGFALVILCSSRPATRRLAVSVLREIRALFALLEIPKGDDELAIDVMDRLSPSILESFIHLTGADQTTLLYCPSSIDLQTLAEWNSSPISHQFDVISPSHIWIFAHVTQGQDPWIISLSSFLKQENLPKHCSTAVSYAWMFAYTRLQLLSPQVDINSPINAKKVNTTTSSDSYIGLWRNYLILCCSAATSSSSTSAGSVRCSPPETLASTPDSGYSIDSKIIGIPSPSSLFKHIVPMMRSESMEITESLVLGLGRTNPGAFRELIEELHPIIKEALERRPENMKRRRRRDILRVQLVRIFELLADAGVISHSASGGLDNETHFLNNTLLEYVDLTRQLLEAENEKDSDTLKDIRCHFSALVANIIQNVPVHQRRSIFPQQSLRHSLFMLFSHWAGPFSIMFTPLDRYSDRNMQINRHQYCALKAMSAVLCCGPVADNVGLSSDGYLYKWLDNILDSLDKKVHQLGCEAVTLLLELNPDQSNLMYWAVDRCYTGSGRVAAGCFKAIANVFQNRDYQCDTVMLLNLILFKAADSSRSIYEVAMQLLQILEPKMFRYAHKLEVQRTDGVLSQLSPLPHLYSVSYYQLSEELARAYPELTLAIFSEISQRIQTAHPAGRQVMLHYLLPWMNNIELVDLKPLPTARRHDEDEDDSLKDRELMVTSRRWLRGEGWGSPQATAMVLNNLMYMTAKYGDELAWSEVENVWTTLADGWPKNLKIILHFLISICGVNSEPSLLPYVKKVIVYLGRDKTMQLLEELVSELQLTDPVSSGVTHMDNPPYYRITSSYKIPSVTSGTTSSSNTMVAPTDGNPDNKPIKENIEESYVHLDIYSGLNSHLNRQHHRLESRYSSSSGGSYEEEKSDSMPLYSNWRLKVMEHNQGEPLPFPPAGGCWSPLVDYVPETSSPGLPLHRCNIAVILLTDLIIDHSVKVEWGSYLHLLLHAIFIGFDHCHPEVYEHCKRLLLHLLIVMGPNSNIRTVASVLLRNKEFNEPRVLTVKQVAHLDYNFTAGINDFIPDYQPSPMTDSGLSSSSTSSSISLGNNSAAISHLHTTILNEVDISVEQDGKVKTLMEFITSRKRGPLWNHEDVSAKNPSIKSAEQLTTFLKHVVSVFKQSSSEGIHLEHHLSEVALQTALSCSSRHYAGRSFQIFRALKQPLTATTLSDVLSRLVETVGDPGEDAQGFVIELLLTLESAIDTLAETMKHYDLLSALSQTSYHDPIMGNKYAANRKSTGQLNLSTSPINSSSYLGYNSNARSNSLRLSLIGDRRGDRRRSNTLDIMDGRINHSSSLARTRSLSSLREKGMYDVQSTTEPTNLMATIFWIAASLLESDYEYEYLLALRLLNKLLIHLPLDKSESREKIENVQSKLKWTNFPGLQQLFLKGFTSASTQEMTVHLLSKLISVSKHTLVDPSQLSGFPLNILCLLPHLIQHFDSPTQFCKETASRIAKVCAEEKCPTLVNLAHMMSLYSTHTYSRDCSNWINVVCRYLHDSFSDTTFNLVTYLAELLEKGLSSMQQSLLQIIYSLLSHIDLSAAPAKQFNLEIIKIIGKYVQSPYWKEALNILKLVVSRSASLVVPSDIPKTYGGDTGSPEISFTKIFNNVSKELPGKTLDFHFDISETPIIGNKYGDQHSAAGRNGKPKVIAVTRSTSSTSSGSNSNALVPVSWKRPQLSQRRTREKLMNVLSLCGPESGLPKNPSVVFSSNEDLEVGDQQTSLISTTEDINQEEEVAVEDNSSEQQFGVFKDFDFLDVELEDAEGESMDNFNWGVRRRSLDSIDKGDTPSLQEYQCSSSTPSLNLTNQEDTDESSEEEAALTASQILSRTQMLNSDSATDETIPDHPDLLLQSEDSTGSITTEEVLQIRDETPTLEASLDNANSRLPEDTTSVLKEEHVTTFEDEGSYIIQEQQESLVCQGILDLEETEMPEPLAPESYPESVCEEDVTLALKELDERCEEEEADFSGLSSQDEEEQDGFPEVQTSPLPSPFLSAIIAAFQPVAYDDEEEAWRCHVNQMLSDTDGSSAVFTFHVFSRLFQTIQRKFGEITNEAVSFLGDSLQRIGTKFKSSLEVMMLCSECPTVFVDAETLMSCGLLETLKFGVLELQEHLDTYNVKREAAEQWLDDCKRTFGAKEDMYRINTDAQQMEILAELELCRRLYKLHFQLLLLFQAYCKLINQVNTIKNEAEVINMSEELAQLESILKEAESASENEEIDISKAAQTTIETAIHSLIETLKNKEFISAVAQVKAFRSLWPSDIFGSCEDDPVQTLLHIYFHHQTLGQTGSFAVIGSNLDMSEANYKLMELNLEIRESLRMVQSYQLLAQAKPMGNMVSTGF
UniProt P35637: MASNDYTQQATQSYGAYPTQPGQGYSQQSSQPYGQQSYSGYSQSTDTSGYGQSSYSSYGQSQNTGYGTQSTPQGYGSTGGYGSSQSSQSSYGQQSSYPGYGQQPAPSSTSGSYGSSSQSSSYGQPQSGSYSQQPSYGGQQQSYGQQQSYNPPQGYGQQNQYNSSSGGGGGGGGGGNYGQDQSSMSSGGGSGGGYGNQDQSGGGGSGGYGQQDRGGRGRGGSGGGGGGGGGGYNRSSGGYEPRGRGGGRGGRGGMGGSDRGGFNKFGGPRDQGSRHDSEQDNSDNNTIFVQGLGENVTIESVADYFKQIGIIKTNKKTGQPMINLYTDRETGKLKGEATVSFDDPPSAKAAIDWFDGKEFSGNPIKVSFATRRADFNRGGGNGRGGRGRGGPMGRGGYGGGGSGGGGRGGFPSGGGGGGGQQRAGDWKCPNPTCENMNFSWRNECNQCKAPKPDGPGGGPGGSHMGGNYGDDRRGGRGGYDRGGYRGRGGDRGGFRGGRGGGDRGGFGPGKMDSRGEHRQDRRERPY
UniProt Q14697: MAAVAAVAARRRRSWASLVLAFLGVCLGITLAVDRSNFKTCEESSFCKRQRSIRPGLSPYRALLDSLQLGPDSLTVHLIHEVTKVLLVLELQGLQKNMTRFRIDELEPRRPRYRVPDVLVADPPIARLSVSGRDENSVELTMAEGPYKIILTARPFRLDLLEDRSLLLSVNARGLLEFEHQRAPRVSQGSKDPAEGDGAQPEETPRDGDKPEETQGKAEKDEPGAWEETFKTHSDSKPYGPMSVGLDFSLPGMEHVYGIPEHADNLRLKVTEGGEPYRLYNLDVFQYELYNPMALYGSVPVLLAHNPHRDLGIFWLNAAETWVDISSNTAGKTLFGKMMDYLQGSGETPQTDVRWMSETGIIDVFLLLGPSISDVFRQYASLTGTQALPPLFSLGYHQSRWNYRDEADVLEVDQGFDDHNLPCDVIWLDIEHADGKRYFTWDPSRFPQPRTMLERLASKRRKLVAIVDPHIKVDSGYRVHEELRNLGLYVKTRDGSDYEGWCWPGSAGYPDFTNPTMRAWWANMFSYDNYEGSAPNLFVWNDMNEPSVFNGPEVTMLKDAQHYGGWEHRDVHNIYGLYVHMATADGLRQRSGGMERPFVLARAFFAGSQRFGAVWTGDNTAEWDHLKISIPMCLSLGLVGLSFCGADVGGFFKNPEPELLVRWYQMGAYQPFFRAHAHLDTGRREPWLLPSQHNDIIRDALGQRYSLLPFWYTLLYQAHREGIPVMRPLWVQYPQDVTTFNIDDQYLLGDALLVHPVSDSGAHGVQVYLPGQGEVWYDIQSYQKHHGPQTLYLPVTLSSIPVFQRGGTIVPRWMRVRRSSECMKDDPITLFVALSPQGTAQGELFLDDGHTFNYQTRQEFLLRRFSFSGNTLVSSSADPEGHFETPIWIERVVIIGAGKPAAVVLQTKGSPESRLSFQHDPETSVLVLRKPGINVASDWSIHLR
UniProt P04062: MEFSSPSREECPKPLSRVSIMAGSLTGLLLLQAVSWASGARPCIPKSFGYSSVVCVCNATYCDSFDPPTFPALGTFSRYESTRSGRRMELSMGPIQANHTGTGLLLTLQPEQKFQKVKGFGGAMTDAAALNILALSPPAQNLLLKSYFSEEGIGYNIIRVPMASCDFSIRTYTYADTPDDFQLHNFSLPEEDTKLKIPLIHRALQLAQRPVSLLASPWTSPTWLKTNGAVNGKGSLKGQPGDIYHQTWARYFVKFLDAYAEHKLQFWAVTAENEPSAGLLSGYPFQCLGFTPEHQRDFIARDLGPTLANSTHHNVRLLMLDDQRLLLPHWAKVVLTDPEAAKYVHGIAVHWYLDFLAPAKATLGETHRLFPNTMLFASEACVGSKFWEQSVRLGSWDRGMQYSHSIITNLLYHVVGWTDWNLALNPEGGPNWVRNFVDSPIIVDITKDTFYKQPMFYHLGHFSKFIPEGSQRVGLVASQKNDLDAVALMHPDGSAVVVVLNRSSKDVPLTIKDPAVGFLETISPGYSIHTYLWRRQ
UniProt Q96CU9: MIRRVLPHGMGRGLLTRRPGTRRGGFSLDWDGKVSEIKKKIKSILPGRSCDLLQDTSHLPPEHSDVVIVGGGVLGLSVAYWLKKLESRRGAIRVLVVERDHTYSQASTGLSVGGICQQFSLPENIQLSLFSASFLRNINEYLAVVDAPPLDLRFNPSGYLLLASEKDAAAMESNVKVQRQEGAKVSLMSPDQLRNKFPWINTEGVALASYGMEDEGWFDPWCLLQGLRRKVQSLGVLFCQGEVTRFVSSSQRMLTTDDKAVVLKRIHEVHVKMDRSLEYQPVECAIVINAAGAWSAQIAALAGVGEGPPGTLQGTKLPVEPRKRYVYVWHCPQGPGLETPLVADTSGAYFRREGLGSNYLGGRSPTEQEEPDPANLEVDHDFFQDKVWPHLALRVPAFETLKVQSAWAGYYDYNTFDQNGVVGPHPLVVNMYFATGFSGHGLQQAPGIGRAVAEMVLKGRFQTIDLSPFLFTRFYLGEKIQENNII

compound: O=C1NC(=O)C(c2cnc3ccccn23)=C1c1cn2c3c(cc(F)cc13)CN(C(=O)N1CCCCC1)CC2; assay: log2 fold change, soluble protein after heating vs DMSO (PISA); higher = thermal stabilisation; K562 lysate, 10 uM; active = over 0.2 and 3.5 SD of the protein, either way, in both replicates (recomputed)
Method in brief: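 Quantification was by TMTpro 16plex LC-MS/MS with equalised channel sums, applied to the supernatant after 21,000xg for 90 min. Samples were crude K562 extract at 1 mg/mL protein in PBS pH 7.4 with 1 mM MgCl2, treated with 10 μM compound for 30 min, heated for 3 min across 48°C-58°C, pooled and brought to 0.5% NP-40 at 4°C. Values are log-two fold changes in thermal stability relative to solvent controls, from duplicates.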

log2 fold change, inactive:
GAGE12F (UniProt P0CL80) 0.018
GDAP1 (UniProt Q8TB36) -0.048
GAPVD1 isoform 6 (UniProt Q14C86) -0.001
FPGT (UniProt O14772) -0.015
FYTTD1 (UniProt Q96QD9) 0.01
GCLC (UniProt P48506) -0.034
GDI2 (UniProt P50395) 0.012
GCLM (UniProt P48507) 0.032
FOXJ3 (UniProt Q9UPW0) 0.019
GATAD2A isoform 3 (UniProt Q86YP4) 0.019
GALNT2 (UniProt Q10471) -0.09
GFM1 (UniProt Q96RP9) 0.015
FRA10AC1 (UniProt Q70Z53) -0.052
GEMIN6 (UniProt Q8WXD5) 0.01
GARS1 (UniProt P41250) -0.019
GCSH (UniProt P23434) 0.033
GAB1 isoform 2 (UniProt Q13480) -0.026
FRYL (UniProt O94915) -0.005
GDPGP1 (UniProt Q6ZNW5) 0.042
FYN (UniProt P06241) -0.027
GALNT5 (UniProt Q7Z7M9) -0.052
GCC1 (UniProt Q96CN9) -0.024
GFPT1 (UniProt Q06210) 0.012
GCC2 (UniProt Q8IWJ2) 0.015
GEMIN8 (UniProt Q9NWZ8) 0.039
FUS (UniProt P35637) -0.036
GANAB isoform 2 (UniProt Q14697) 0.007
FTSJ1 (UniProt Q9UET6) 0.009
GEMIN4 (UniProt P57678) 0.019
GBA (UniProt P04062) 0.027
GABARAPL2 (UniProt P60520) -0.013
FXN (UniProt Q16595) 0.058
GAMT (UniProt Q14353) -0.049
GAPDH (UniProt P04406) 0.014
GALT (UniProt P07902) 0.034
FOXRED1 (UniProt Q96CU9) 0.006
GCN1 (UniProt Q92616) 0.033
FTH1 (UniProt P02794) -0.003
